Measured values: the supplement of paper PMC10849652
The list shows a part of the results.

The chains behind the UniProt entries cited, without tags or fusion partners. Where a name states a change or a piece, a line headed by the entry shows the natural chain unless it says otherwise.
UniProt P24666: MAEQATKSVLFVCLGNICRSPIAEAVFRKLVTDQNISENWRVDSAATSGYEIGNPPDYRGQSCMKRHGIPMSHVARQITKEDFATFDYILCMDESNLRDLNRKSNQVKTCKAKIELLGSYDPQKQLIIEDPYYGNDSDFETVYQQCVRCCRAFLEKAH
UniProt Q9Y312: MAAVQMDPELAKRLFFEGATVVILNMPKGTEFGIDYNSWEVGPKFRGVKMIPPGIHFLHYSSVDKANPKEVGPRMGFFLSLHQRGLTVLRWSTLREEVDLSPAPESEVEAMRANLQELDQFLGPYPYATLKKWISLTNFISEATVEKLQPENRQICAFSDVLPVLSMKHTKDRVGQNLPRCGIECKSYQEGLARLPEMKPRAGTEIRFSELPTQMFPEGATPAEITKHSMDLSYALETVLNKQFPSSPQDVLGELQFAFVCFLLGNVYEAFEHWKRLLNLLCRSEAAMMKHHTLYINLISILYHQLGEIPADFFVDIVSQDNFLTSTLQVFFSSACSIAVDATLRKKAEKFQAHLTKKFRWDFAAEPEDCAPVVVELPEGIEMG
UniProt O95573: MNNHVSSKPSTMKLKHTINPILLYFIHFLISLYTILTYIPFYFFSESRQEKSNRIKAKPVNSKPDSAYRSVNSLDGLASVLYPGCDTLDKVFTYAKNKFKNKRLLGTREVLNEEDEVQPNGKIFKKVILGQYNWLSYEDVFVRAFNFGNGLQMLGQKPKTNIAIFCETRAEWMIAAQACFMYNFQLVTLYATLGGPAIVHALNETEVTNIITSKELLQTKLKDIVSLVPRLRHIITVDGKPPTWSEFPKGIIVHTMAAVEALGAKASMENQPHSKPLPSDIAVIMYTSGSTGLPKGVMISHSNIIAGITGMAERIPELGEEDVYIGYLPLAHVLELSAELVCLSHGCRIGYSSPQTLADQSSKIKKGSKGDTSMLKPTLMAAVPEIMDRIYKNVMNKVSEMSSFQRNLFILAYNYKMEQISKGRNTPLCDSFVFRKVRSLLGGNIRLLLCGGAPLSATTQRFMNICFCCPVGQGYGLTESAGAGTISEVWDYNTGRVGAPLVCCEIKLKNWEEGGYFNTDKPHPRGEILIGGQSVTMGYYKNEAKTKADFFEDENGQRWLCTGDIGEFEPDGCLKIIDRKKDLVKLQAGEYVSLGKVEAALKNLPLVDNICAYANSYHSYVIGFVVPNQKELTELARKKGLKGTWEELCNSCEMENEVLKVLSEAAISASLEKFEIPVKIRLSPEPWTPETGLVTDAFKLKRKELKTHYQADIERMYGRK
UniProt Q96GS6: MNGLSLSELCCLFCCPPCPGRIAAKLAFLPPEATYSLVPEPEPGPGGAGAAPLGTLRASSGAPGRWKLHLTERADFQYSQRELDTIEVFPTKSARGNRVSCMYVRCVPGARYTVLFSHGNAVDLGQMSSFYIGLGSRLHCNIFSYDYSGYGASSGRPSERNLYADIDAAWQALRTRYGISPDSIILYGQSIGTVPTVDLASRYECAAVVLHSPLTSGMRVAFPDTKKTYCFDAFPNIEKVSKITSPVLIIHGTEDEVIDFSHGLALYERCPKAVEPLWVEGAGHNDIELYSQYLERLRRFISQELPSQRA
UniProt Q13685: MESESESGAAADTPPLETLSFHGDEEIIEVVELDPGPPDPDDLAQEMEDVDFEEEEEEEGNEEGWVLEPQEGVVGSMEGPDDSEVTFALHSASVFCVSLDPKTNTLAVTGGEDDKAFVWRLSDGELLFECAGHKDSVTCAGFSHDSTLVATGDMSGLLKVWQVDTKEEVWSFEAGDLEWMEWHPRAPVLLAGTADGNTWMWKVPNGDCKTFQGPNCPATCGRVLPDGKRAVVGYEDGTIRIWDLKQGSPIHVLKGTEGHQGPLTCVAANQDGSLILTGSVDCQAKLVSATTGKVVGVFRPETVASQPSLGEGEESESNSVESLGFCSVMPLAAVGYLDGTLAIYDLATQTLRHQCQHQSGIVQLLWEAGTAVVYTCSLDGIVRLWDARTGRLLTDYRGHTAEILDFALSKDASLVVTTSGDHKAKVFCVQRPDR
UniProt O95870: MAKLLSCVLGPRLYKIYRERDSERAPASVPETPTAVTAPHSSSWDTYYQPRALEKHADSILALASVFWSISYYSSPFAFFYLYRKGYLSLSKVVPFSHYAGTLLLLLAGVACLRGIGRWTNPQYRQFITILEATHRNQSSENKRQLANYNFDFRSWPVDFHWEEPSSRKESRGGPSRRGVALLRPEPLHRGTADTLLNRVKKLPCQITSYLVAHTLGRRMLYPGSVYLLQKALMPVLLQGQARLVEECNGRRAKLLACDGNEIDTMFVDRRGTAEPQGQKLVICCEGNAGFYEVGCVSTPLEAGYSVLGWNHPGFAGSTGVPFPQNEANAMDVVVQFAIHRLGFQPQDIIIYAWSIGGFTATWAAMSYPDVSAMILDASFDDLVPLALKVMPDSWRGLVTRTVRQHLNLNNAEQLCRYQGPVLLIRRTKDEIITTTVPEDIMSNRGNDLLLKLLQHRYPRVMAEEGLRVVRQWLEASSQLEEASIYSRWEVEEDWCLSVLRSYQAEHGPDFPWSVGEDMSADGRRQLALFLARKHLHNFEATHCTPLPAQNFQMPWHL
UniProt Q15067: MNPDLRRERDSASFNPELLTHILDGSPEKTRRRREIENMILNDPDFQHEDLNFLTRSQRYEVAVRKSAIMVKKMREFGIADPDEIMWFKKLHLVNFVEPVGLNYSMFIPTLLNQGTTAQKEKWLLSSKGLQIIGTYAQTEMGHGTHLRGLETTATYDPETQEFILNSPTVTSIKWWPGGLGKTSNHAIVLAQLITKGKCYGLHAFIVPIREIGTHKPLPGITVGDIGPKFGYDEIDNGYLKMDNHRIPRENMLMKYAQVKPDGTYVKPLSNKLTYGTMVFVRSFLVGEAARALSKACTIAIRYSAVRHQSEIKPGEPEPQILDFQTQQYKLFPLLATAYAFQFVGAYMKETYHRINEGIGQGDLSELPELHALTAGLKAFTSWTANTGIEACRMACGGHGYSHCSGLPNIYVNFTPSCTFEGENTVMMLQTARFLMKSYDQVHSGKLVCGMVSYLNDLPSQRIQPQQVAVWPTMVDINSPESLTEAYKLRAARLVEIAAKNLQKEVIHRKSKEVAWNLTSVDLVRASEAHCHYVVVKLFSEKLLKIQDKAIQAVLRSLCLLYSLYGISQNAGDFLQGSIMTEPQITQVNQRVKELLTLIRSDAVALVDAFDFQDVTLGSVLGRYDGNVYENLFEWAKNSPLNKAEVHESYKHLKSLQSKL
UniProt Q9UKV3: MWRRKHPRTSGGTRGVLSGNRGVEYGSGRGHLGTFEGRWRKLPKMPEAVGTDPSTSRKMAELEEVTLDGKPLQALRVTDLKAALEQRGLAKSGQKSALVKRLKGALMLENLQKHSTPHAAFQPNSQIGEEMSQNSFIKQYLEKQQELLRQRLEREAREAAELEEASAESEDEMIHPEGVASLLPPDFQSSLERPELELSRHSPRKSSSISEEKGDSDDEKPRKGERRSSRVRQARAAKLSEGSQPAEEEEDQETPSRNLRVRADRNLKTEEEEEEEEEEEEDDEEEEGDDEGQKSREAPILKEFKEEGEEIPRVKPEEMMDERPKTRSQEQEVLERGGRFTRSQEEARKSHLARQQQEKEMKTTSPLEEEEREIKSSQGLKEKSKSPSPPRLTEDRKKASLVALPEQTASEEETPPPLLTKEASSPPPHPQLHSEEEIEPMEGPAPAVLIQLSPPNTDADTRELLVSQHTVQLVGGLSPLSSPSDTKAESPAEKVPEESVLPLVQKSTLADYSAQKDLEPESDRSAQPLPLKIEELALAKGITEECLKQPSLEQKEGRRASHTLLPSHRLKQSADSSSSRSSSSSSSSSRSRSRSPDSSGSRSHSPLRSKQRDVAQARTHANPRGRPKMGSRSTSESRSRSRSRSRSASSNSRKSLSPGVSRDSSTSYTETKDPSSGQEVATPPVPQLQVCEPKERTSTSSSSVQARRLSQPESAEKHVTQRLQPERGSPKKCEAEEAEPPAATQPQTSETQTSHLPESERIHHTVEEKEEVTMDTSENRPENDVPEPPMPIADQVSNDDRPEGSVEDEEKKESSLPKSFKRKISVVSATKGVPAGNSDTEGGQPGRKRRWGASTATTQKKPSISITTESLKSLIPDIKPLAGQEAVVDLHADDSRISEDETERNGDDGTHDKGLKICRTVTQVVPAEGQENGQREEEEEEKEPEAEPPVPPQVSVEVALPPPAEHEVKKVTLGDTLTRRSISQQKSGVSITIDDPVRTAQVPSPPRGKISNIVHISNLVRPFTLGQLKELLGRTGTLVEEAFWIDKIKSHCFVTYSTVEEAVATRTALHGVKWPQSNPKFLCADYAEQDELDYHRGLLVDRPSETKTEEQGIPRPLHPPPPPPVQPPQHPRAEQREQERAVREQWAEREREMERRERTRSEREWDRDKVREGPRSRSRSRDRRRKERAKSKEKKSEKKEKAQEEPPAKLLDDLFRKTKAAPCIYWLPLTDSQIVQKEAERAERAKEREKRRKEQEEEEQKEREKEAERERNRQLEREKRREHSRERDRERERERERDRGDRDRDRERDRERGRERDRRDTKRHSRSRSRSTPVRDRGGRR
UniProt Q4G176: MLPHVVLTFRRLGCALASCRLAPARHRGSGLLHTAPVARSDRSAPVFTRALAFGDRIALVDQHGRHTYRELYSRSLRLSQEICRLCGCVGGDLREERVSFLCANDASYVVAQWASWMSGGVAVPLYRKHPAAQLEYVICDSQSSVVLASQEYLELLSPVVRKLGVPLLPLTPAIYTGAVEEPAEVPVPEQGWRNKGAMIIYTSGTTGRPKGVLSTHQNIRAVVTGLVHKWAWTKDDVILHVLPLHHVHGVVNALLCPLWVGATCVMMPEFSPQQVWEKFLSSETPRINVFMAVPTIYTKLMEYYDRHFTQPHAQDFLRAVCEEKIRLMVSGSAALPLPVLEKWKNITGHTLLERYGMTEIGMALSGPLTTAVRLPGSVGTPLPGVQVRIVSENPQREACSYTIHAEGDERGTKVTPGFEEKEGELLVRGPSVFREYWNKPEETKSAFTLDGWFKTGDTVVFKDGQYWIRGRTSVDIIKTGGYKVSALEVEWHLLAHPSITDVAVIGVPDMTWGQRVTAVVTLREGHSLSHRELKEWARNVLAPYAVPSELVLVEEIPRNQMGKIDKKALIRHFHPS
UniProt P11117: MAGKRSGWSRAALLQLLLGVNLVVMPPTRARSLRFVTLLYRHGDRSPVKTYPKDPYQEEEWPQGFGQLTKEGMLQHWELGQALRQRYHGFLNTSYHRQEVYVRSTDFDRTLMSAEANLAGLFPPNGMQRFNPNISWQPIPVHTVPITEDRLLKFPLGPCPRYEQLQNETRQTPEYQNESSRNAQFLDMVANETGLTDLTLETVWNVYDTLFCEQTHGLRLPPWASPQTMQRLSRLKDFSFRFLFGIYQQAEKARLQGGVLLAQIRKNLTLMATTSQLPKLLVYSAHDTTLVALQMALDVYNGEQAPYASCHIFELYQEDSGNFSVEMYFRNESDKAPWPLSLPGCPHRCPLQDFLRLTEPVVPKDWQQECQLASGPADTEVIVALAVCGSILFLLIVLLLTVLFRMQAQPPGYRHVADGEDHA
UniProt Q9BTE6: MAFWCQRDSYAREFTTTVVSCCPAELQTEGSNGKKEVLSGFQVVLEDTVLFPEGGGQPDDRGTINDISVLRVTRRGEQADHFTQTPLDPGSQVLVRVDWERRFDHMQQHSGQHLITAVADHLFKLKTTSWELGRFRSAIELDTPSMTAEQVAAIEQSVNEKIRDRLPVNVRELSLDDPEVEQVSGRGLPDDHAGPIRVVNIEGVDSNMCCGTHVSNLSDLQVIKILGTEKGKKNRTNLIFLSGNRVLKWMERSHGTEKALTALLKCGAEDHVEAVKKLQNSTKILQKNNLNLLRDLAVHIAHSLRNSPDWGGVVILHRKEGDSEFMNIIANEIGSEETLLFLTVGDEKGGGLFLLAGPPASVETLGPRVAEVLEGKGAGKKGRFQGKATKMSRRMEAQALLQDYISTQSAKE
UniProt P11310: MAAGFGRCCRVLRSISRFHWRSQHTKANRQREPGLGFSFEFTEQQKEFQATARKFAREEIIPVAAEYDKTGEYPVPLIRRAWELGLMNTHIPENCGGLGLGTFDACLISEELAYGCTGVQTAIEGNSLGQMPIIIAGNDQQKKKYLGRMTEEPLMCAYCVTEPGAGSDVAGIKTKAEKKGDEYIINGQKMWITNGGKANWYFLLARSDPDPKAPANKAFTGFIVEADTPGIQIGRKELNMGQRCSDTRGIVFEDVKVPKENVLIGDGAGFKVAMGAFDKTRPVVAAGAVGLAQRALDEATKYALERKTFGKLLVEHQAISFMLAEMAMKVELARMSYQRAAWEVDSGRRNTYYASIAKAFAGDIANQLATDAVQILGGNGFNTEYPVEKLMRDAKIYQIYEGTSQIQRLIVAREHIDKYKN

Columns and labels:
Assay in all cases: log2 fold change, soluble protein after heating vs DMSO (PISA); higher = thermal stabilisation; K562 cells, 10 uM, 30 min; active = over 0.2 and 3.5 SD of the protein, either way, in both replicates (recomputed)
[1] = compound: NC(=O)Nc1cc(-c2cccc(F)c2)sc1C(=O)N[C@H]1CCCNC1
How it was run: (§1)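 Aliquots of K562 cells (2×10^6 cells/mL) treated with 10 μM compound for 30 min were heated for 3 min over 48°C-58°C. After pooling and extraction in PBS with 0.5% NP-40 at 4°C, soluble protein from a 21,000xg, 90 min spin was quantified by TMTpro 16plex LC-MS/MS with channel sums equalised. Thermal stability is expressed against control samples, from duplicates, as a log2 fold change.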

[2] = compound: NC(=O)c1cnc(N[C@@H]2CCCC[C@@H]2N)nc1Nc1cccc(-n2nccn2)c1
How it was run: as §1

[3] = compound: NC1(c2ccc(-c3nc4ccn5c(=O)[nH]nc5c4cc3-c3ccccc3)cc2)CCC1
How it was run: as §1

[4] = compound: NCC(=O)Nc1ccc(-n2nc(C(F)(F)F)cc2-c2ccc3c(ccc4ccccc43)c2)cc1
How it was run: as §1

entinostat = compound: Nc1ccccc1NC(=O)c1ccc(CNC(=O)OCc2cccnc2)cc1 [entinostat]
How it was run: as §1

vorinostat = compound: O=C(CCCCCCC(=O)Nc1ccccc1)NO [vorinostat]
How it was run: as §1

citarinostat = compound: O=C(CCCCCCNC(=O)c1cnc(N(c2ccccc2)c2ccccc2Cl)nc1)NO [citarinostat]
How it was run: as §1

silmitasertib = compound: O=C(O)c1ccc2c(c1)nc(Nc1cccc(Cl)c1)c1ccncc12 [silmitasertib]
How it was run: as §1

[5] = compound: O=C1NC(=O)C(c2cnc3ccccn23)=C1c1cn2c3c(cc(F)cc13)CN(C(=O)N1CCCCC1)CC2
How it was run: as §1

[6] = compound: c1cc(OCCN2CCCCC2)cc(-c2n[nH]c3ccc(-c4nnc[nH]4)cc23)c1
How it was run: as §1

entospletinib = compound: c1cn2cc(-c3ccc4cn[nH]c4c3)nc(Nc3ccc(N4CCOCC4)cc3)c2n1 [entospletinib]
How it was run: as §1

| Target | log2 fold change [1] | log2 fold change [2] | log2 fold change [3] | log2 fold change [4] | log2 fold change (entinostat) | log2 fold change (vorinostat) | log2 fold change (citarinostat) | log2 fold change (silmitasertib) | log2 fold change [5] | log2 fold change [6] | log2 fold change (entospletinib) |
| --- | --- | --- | --- | --- | --- | --- | --- | --- | --- | --- | --- |
| ACP1 isoform 2 (UniProt P24666) | inactive: 0.048 | inactive: -0.018 | inactive: -0.086 | inactive: -0.041 | inactive: 0.041 | inactive: 0.159 | inactive: 0.005 | inactive: -0.005 | inactive: -0.149 | inactive: -0.044 | – |
| AAR2 (UniProt Q9Y312) | inactive: -0.016 | inactive: -0.015 | inactive: 0.066 | inactive: -0.034 | inactive: 0.026 | inactive: 0.19 | inactive: -0.009 | inactive: 0.035 | inactive: 0.04 | inactive: -0.067 | – |
| ACSL3 (UniProt O95573) | inactive: 0.009 | inactive: -0.041 | inactive: -0.095 | inactive: -0.042 | inactive: 0.047 | inactive: 0.049 | inactive: 0.047 | inactive: 0.074 | inactive: -0.045 | inactive: 0.028 | – |
| ACVR1 (UniProt Q04771) | inactive: 0.044 | inactive: 0.074 | inactive: 0 | inactive: 0.089 | inactive: 0.137 | inactive: -0.255 | inactive: 0.07 | inactive: 0.046 | inactive: -0.069 | inactive: 0.027 | – |
| ABHD17A isoform 2 (UniProt Q96GS6) | inactive: 0.036 | inactive: -0.119 | inactive: -0.049 | inactive: -0.078 | inactive: -0.104 | inactive: -0.04 | inactive: 0.036 | inactive: -0.02 | inactive: 0.01 | inactive: 0.051 | – |
| ACBD6 (UniProt Q9BR61) | inactive: -0.089 | inactive: -0.077 | inactive: -0.006 | inactive: 0.001 | inactive: -0.048 | inactive: 0.086 | inactive: 0.084 | inactive: 0.134 | inactive: 0.022 | inactive: 0.271 | – |
| ACSM3 (UniProt Q53FZ2) | inactive: 0.017 | inactive: 0 | inactive: 0.021 | inactive: -0.125 | inactive: 0.009 | inactive: 0.122 | inactive: 0.122 | inactive: 0.06 | inactive: -0.134 | inactive: -0.094 | – |
| ACAD9 (UniProt Q9H845) | inactive: -0.009 | inactive: -0.051 | inactive: -0.036 | inactive: -0.012 | inactive: -0.021 | inactive: 0.033 | inactive: 0.035 | inactive: 0.021 | inactive: -0.016 | inactive: 0.007 | – |
| ABHD12 isoform 2 (UniProt Q8N2K0) | inactive: 0.036 | inactive: -0.001 | inactive: 0.07 | inactive: -0.006 | inactive: 0.011 | inactive: 0.034 | inactive: -0.015 | inactive: 0.039 | inactive: 0.098 | inactive: -0.096 | inactive: 0.092 |
| AASDHPPT (UniProt Q9NRN7) | inactive: -0.017 | inactive: -0.038 | inactive: -0.08 | inactive: -0.034 | inactive: -0.008 | inactive: 0.004 | inactive: 0.062 | inactive: 0.007 | inactive: -0.057 | inactive: -0.016 | inactive: 0.008 |
| ABRAXAS1 (UniProt Q6UWZ7) | inactive: 0.173 | inactive: 0.203 | inactive: 0.157 | inactive: 0.115 | inactive: -0.135 | inactive: -0.092 | inactive: -0.112 | inactive: 0.05 | inactive: 0.016 | inactive: -0.186 | inactive: 0.077 |
| AAMP (UniProt Q13685) | inactive: -0.006 | inactive: -0.05 | inactive: -0.005 | inactive: -0.018 | inactive: -0.055 | inactive: 0.015 | inactive: -0.026 | inactive: 0.061 | inactive: 0.059 | inactive: -0.013 | – |
| ABHD16A (UniProt O95870) | inactive: -0.026 | inactive: 0.026 | inactive: 0.113 | inactive: 0.049 | inactive: -0.02 | inactive: 0.055 | inactive: 0.026 | inactive: -0.022 | inactive: 0.005 | inactive: 0.008 | – |
| ABL1 isoform 2 (UniProt P00519) | inactive: 0.004 | inactive: 0.092 | inactive: 0.139 | inactive: 0.023 | inactive: 0.013 | inactive: -0.005 | inactive: 0.026 | inactive: 0.11 | inactive: 0.127 | inactive: -0.064 | inactive: 0.002 |
| AARS2 (UniProt Q5JTZ9) | inactive: -0.029 | inactive: -0.018 | inactive: -0.212 | inactive: -0.086 | inactive: 0.045 | inactive: 0.015 | inactive: 0.037 | inactive: -0.051 | inactive: -0.026 | inactive: 0.06 | – |
| ACOX1 isoform 2 (UniProt Q15067) | inactive: 0.003 | inactive: -0.037 | inactive: -0.001 | inactive: 0.004 | inactive: 0.004 | inactive: -0.035 | inactive: 0.03 | inactive: -0.005 | inactive: 0.092 | inactive: -0.046 | inactive: -0.04 |
| ACADVL isoform 3 (UniProt P49748) | inactive: -0.025 | inactive: -0.036 | inactive: -0.021 | inactive: -0.032 | inactive: 0 | inactive: -0.019 | inactive: 0.043 | inactive: -0.015 | inactive: -0.014 | inactive: -0.028 | – |
| ACIN1 (UniProt Q9UKV3) | inactive: -0.013 | inactive: -0.038 | inactive: 0.003 | inactive: -0.062 | inactive: -0.024 | inactive: 0.035 | inactive: 0.035 | inactive: -0.124 | inactive: 0.013 | inactive: -0.084 | – |
| ACTR1B (UniProt P42025) | inactive: 0.075 | inactive: 0.027 | inactive: -0.003 | inactive: 0.004 | inactive: -0.034 | active: 0.459 | inactive: 0.078 | inactive: 0.023 | inactive: 0.06 | inactive: -0.004 | – |
| ABCC5 (UniProt O15440) | inactive: 0.016 | inactive: 0.088 | inactive: -0.038 | inactive: -0.005 | inactive: -0.017 | inactive: 0.001 | inactive: 0.114 | inactive: 0.008 | inactive: -0.082 | inactive: 0.12 | – |
| ACSF3 (UniProt Q4G176) | inactive: -0.016 | inactive: -0.073 | inactive: -0.098 | inactive: -0.184 | inactive: 0.069 | inactive: 0.007 | inactive: 0.197 | inactive: 0.109 | inactive: 0.035 | inactive: -0.107 | – |
| AAK1, A0A096LP25 | inactive: 0.318 | inactive: 0.048 | inactive: 0.048 | inactive: -0.085 | inactive: -0.061 | inactive: -0.007 | inactive: -0.014 | inactive: -0.072 | inactive: -0.159 | inactive: 0.142 | – |
| ACP2 (UniProt P11117) | inactive: -0.014 | inactive: 0.002 | inactive: -0.124 | inactive: 0.018 | inactive: -0.01 | inactive: -0.003 | inactive: 0.05 | inactive: 0.069 | inactive: -0.052 | inactive: -0.102 | – |
| AARSD1 isoform 3 (UniProt Q9BTE6) | inactive: -0.051 | inactive: -0.008 | active: -0.214 | inactive: -0.04 | inactive: 0.054 | inactive: -0.113 | inactive: 0.033 | inactive: 0.046 | inactive: 0.008 | inactive: 0.011 | – |
| ACP1 (UniProt P24666) | inactive: -0.079 | inactive: -0.24 | inactive: -0.002 | inactive: -0.199 | inactive: 0.093 | inactive: 0.01 | inactive: 0.012 | inactive: 0.088 | inactive: -0.074 | inactive: -0.014 | – |
| ACTBL2 (UniProt Q562R1) | inactive: -0.205 | inactive: 0.038 | active: 1.54 | inactive: 0.239 | inactive: 0.103 | inactive: 0.024 | inactive: -0.585 | inactive: -0.129 | inactive: -0.051 | inactive: -0.1 | – |
| ACACB (UniProt O00763) | inactive: -0.02 | inactive: -0.043 | inactive: -0.047 | inactive: 0.084 | inactive: 0.076 | inactive: 0.082 | inactive: 0.131 | inactive: 0.119 | inactive: 0.222 | inactive: -0.01 | – |
| ACO2 (UniProt Q99798) | inactive: 0.017 | inactive: -0.04 | inactive: -0.142 | inactive: -0.012 | inactive: 0.039 | inactive: 0.023 | inactive: 0.057 | inactive: 0.001 | inactive: -0.058 | inactive: -0.042 | – |
| ACADM isoform 2 (UniProt P11310) | inactive: -0.044 | inactive: 0.01 | inactive: -0.024 | inactive: 0.029 | inactive: -0.019 | inactive: -0.007 | inactive: 0.037 | inactive: -0.032 | inactive: -0.101 | inactive: 0.009 | – |

Copied from the entries so far for reference:

| Target | log2 fold change [1] | log2 fold change [2] | log2 fold change [3] | log2 fold change [4] | log2 fold change (entinostat) | log2 fold change (vorinostat) | log2 fold change (citarinostat) | log2 fold change (silmitasertib) | log2 fold change [5] | log2 fold change [6] | log2 fold change (entospletinib) |
| --- | --- | --- | --- | --- | --- | --- | --- | --- | --- | --- | --- |
| ACO2 (UniProt Q99798) | inactive: 0.017 | inactive: -0.04 | inactive: -0.142 | inactive: -0.012 | inactive: 0.039 | inactive: 0.023 | inactive: 0.057 | inactive: 0.001 | inactive: -0.058 | inactive: -0.042 | – |
| ACADM isoform 2 (UniProt P11310) | inactive: -0.044 | inactive: 0.01 | inactive: -0.024 | inactive: 0.029 | inactive: -0.019 | inactive: -0.007 | inactive: 0.037 | inactive: -0.032 | inactive: -0.101 | inactive: 0.009 | – |
